We go through 1 substance from PMC9837762.

Chains of the proteins cited; added tags and fusions are not shown.
UniProt Q7Z434: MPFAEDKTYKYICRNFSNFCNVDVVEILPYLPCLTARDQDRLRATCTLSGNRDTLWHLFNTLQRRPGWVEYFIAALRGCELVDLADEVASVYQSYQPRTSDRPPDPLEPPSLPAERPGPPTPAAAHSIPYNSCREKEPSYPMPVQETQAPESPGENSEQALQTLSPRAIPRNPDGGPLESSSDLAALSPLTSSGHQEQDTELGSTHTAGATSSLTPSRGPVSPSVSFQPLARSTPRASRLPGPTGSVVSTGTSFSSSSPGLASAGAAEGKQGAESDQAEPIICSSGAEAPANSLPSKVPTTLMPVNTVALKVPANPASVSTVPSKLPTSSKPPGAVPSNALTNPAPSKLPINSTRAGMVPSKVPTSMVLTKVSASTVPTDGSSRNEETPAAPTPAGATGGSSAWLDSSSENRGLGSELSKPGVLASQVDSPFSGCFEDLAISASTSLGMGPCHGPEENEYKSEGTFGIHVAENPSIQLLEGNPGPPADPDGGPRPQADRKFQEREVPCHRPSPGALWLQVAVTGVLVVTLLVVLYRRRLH

The target of this experiment is T1, HA-MDA5 (melanoma differentiation–associated protein 5) (UniProt Q9BYX4).
T1 sequence: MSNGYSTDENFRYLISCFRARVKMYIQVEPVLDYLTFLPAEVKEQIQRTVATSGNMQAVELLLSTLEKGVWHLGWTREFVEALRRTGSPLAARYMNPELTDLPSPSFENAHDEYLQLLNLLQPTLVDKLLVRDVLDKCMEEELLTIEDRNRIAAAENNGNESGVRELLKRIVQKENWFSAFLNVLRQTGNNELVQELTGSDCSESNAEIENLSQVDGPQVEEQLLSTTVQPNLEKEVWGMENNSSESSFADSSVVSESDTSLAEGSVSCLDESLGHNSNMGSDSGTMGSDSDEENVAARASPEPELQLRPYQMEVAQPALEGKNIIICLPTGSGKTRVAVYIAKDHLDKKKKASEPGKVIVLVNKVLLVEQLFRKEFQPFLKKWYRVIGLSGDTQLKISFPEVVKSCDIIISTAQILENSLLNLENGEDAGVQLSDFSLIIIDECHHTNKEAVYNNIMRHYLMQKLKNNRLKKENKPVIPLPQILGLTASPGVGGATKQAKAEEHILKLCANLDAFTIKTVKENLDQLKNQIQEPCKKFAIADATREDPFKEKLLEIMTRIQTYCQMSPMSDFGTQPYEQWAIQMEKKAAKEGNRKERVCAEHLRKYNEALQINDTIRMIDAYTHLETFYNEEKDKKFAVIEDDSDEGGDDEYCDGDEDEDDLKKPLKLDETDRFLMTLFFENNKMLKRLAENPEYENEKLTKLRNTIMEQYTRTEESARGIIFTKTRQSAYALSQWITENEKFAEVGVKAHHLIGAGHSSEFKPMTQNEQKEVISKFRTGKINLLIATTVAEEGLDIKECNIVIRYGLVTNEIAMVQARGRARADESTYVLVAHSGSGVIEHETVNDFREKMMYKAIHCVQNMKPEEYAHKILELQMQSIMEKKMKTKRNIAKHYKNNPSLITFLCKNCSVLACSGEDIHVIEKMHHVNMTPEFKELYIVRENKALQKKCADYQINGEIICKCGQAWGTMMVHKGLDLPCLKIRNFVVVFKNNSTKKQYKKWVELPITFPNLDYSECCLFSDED
Nature of the experiment: co-IP.

No constants are given. Whether binding was seen depends on the method and setting. In cells and extracts the contact can be indirect. Some binding calls cover weakened binding; strength is not graded here. Where a sequence is shown, tags or fusion partners need not be part of it.

“Myc-MAVS (mitochondrial antiviral signaling protein) (from UniProt Q7Z434 1-540)”: the binding result is “binds”.
